Record: PubChem BioAssay AID652259 (Drosophila RNAi Screening Center, 2013)

Purpose: 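Knock-downs that push a Wingless-driven reporter up or down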 (primary screen)
System: Drosophila clone 8 imaginal disc epithelial cells
Knock-down reagent: long dsRNA against Drosophila genes
Conditions: pathway stimulated by co-transfected Wingless expression plasmid
Measured: 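Firefly luciferase from a tcf-site Wingless reporter, measured alongside co-transfected Renilla luciferase that tracks transfection; pathway stimulated by a Wingless plasmid; the firefly-to-Renilla ratio is not deposited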
Scale: firefly reporter light: higher = more Wg reporter light, before normalisation; Renilla control light: higher = more transfected or surviving cells
Call rule: 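Strong candidates differ from their plate mean by at least two out of four per-plate statistical tests; weak candidates meet just one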
Calls: active = candidate regulator (raises or lowers reporter); inactive = not a candidate
The screen tested about 22,000 reagents; shown is an unselected part of those with a known target gene and a result. Over the whole deposit, 233 (1.1%) were called active. 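Light values are raw, unnormalised plate reads; the ratio scores behind the reporter calls were not deposited.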 A plus sign joins genes that one reagent is predicted to hit. Reagent sequences are not shown. Not stated in the record: the amount of reagent, the time to read-out, the dose of the treatment.

{"gene": "CG34444", "DRSC id": "DRSC06435", "firefly reporter light, replicate 1": 4969, "Renilla control light, replicate 1": 1559, "Outcome": "inactive"}
{"gene": "CG17047", "DRSC id": "DRSC06648", "reporter change call, replicate 1": "Wg reporter activity raised", "firefly reporter light, replicate 1": 6265, "Renilla control light, replicate 1": 3516, "Outcome": "inactive"}
{"gene": "CG16704", "DRSC id": "DRSC00475", "firefly reporter light, replicate 1": 2252, "firefly reporter light, replicate 2": 8187, "Renilla control light, replicate 1": 1034, "Renilla control light, replicate 2": 3148, "Outcome": "inactive"}
{"gene": "bc10", "DRSC id": "DRSC11326", "firefly reporter light, replicate 1": 2326, "firefly reporter light, replicate 2": 7208, "Renilla control light, replicate 1": 1330, "Renilla control light, replicate 2": 3828, "Outcome": "inactive"}
{"gene": "CG10005", "DRSC id": "DRSC14172", "firefly reporter light, replicate 1": 15872, "Renilla control light, replicate 1": 3836, "Outcome": "inactive"}
{"gene": "CG8500", "DRSC id": "DRSC16434", "firefly reporter light, replicate 1": 14940, "Renilla control light, replicate 1": 3426, "Outcome": "inactive"}
{"gene": "CG2839", "DRSC id": "DRSC00544", "firefly reporter light, replicate 1": 4707, "firefly reporter light, replicate 2": 7137, "Renilla control light, replicate 1": 1592, "Renilla control light, replicate 2": 3233, "Outcome": "inactive"}
{"gene": "CG34355", "DRSC id": "DRSC13639", "firefly reporter light, replicate 1": 5057, "Renilla control light, replicate 1": 2203, "Outcome": "inactive"}
{"gene": "CG34355", "DRSC id": "DRSC14520", "firefly reporter light, replicate 1": 18726, "Renilla control light, replicate 1": 15529, "Outcome": "inactive"}
{"gene": "CG34355", "DRSC id": "DRSC14668", "firefly reporter light, replicate 1": 19498, "Renilla control light, replicate 1": 16969, "Outcome": "inactive"}
{"gene": "CG34355", "DRSC id": "DRSC21687", "firefly reporter light, replicate 1": 7.36e5, "firefly reporter light, replicate 2": 6.88e5, "Renilla control light, replicate 1": 3.61e5, "Renilla control light, replicate 2": 2.92e5, "Outcome": "inactive"}
{"gene": "Lipt1 + CG42837", "DRSC id": "DRSC07183", "firefly reporter light, replicate 1": 14476, "Renilla control light, replicate 1": 3846, "Outcome": "inactive"}
{"gene": "sloth2 + sloth1", "DRSC id": "DRSC17922", "firefly reporter light, replicate 1": 24480, "Renilla control light, replicate 1": 11904, "Outcome": "inactive"}
{"gene": "sloth2 + sloth1", "DRSC id": "DRSC17923", "firefly reporter light, replicate 1": 24982, "Renilla control light, replicate 1": 10699, "Outcome": "inactive"}
{"gene": "Nepl3 (Neprilysin-like 3)", "DRSC id": "DRSC02681", "firefly reporter light, replicate 1": 9424, "Renilla control light, replicate 1": 3450, "Outcome": "inactive"}
{"gene": "CG11350", "DRSC id": "DRSC08181", "firefly reporter light, replicate 1": 1920, "firefly reporter light, replicate 2": 10145, "Renilla control light, replicate 1": 1047, "Renilla control light, replicate 2": 3700, "Outcome": "inactive"}
{"gene": "Odj (Oddjob)", "DRSC id": "DRSC16234", "firefly reporter light, replicate 1": 4021, "firefly reporter light, replicate 2": 6294, "Renilla control light, replicate 1": 1911, "Renilla control light, replicate 2": 2179, "Outcome": "inactive"}
